# In the supplement of paper PMC10849652:
# By UniProt entry, the sequences of proteins in these tests, tags left out. Where a name states a change or a piece, a line headed by the entry shows the natural chain unless it says otherwise.
# UniProt P08243: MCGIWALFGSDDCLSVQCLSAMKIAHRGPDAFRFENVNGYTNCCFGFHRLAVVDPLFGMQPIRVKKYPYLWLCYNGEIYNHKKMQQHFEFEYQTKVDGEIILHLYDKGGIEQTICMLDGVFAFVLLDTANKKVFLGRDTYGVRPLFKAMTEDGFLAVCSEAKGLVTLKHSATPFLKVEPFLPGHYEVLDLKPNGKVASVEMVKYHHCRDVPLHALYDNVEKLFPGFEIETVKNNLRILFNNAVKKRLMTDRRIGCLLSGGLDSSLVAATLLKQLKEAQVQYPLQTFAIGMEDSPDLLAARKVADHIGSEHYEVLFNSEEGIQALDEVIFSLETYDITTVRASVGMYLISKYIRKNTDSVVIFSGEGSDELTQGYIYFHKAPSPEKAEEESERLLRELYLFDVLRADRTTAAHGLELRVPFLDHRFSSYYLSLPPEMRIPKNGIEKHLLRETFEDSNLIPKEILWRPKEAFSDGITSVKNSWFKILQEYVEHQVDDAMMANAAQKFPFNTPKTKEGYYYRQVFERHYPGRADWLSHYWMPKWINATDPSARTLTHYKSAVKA
# UniProt P54709, whole entry, looked up: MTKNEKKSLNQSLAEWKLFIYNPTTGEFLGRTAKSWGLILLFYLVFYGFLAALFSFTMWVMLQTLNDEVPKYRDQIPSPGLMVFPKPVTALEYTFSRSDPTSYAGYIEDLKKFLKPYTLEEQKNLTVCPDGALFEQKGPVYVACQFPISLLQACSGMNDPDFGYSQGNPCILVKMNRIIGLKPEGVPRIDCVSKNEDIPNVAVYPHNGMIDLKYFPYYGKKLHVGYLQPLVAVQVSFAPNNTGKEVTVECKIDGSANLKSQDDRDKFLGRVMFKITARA
# UniProt O75947: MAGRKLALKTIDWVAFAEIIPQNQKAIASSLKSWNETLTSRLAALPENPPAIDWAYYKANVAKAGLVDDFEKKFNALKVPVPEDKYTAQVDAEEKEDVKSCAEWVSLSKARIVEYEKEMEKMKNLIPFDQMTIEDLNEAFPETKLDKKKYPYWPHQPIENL
# UniProt Q9UII2: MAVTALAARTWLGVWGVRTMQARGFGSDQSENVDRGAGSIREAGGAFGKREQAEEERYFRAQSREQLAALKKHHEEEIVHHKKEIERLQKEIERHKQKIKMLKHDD
# UniProt Q96BY7: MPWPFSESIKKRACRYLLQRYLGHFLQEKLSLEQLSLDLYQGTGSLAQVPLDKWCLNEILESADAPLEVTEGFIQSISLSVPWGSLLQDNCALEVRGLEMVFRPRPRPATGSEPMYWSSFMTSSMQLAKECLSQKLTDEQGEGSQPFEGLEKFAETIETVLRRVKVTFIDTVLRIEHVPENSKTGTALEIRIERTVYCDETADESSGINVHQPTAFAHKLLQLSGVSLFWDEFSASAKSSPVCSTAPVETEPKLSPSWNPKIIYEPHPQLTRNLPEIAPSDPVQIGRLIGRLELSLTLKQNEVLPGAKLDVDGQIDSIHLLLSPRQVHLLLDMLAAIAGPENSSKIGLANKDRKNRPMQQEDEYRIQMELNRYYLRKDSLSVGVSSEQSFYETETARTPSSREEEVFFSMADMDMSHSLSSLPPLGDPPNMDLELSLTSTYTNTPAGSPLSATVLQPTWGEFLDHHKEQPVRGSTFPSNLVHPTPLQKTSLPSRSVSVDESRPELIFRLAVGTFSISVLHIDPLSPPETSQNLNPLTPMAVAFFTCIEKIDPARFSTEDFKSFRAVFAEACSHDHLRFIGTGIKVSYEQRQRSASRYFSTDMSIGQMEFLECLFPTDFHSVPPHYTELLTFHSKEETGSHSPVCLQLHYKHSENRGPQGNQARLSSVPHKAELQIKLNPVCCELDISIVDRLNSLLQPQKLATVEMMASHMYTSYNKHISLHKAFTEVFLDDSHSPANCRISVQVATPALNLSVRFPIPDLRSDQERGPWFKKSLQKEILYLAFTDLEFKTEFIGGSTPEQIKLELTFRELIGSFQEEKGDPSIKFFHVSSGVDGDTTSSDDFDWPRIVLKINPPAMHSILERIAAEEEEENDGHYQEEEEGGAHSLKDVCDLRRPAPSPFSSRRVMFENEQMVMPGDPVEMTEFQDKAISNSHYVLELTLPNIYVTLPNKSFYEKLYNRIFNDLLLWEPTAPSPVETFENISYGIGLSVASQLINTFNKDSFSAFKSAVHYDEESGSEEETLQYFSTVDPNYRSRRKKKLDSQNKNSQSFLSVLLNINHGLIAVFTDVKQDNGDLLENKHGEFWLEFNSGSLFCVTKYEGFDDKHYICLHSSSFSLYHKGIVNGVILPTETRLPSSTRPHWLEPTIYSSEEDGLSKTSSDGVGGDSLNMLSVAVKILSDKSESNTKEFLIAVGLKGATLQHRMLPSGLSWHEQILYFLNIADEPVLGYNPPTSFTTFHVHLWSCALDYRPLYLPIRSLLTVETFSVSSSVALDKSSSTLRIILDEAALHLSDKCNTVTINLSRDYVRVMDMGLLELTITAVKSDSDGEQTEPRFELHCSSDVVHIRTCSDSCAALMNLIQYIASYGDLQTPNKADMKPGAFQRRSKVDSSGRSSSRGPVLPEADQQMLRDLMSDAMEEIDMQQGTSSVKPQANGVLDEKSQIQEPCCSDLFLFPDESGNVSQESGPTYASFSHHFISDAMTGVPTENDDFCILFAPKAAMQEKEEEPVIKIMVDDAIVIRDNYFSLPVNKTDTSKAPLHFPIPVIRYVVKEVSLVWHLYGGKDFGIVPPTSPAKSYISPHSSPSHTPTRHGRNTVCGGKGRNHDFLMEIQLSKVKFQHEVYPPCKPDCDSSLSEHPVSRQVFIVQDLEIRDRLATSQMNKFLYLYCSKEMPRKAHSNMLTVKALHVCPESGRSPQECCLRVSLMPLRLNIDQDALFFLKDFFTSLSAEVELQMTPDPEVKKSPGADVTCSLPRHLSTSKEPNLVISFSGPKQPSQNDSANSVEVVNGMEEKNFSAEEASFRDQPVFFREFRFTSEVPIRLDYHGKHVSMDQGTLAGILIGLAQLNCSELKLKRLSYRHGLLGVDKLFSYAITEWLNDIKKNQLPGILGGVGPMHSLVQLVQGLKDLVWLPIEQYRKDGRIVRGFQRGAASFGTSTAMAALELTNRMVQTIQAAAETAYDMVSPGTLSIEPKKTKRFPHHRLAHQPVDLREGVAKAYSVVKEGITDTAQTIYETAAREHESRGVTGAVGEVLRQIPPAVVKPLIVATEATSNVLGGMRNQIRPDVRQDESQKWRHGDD
# UniProt O75348, whole entry, looked up: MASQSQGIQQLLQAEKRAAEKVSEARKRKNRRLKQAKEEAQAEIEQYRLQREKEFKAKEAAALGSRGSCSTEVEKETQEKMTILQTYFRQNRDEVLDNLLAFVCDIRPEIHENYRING
# UniProt Q13535: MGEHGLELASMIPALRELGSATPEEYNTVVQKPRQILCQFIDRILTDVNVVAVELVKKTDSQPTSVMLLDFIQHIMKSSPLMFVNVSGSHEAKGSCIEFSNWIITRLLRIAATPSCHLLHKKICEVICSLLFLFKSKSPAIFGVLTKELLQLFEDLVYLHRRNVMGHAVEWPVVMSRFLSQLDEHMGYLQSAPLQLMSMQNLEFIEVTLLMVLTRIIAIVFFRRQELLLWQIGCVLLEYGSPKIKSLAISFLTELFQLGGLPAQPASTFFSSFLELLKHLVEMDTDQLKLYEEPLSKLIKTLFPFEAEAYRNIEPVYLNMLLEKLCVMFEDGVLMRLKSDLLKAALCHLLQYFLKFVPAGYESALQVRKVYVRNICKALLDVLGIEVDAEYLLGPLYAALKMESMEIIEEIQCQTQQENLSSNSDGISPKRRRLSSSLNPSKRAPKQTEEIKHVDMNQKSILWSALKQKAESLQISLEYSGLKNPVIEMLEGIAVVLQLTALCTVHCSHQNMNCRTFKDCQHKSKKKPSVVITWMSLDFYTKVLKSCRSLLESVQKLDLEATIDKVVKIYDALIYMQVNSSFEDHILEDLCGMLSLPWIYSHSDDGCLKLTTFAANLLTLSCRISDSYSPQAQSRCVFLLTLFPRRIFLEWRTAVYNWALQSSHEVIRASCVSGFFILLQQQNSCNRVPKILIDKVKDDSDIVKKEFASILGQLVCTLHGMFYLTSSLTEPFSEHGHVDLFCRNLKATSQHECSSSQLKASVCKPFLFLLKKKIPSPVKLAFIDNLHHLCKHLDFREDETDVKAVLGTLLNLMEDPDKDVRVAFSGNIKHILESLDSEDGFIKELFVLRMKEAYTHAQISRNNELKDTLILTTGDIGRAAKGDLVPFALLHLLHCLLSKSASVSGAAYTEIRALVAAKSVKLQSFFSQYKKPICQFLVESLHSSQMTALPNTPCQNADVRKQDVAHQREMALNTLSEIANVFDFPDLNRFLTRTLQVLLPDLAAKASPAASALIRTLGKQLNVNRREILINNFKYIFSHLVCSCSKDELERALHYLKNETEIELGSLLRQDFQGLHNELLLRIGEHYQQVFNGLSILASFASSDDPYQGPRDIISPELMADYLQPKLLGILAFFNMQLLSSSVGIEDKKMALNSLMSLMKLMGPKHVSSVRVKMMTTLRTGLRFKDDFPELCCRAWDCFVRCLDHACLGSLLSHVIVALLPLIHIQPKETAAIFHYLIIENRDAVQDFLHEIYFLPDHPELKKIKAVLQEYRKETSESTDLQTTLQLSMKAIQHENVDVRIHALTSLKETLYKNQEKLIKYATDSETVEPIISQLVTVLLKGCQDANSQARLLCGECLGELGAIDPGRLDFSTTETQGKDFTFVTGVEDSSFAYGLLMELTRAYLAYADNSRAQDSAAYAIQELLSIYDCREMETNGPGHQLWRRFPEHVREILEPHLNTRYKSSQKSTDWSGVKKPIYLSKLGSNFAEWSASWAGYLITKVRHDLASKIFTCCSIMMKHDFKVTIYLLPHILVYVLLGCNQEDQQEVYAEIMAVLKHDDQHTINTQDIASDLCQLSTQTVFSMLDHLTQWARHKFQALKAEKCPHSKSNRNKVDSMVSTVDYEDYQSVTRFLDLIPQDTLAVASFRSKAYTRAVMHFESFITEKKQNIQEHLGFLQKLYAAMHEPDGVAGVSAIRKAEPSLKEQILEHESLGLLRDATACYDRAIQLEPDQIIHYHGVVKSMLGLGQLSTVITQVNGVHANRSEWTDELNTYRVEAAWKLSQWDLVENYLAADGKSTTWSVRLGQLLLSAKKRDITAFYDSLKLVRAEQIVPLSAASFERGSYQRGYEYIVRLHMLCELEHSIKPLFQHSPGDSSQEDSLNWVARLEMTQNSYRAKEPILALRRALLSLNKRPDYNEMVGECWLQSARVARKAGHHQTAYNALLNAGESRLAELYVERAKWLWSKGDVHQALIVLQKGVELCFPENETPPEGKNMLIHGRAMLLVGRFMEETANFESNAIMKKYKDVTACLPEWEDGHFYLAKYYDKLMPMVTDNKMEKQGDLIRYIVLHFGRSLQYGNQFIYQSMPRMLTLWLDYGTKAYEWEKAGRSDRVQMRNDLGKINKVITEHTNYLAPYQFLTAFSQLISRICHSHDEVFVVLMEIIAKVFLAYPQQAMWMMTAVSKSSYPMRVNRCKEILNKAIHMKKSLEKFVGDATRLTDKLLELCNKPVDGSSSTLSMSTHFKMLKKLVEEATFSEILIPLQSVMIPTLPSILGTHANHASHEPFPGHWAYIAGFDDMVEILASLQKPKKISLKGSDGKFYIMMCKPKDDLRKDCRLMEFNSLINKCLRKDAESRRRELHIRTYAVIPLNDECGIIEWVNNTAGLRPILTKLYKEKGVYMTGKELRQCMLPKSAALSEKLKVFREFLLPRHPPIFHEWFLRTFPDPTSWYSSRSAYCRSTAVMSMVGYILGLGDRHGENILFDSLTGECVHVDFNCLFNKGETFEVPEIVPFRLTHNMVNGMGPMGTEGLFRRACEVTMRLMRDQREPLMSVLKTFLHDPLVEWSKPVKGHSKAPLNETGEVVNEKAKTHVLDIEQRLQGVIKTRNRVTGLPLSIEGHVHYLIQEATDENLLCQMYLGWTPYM
# UniProt Q96A05, whole entry, looked up: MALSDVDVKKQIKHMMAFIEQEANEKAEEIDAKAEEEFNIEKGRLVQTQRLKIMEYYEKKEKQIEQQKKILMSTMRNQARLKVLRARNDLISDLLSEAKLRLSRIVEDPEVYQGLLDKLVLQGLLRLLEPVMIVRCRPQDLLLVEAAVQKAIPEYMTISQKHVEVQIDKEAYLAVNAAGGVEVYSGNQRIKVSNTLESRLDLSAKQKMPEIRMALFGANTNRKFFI
# UniProt Q8N9N2: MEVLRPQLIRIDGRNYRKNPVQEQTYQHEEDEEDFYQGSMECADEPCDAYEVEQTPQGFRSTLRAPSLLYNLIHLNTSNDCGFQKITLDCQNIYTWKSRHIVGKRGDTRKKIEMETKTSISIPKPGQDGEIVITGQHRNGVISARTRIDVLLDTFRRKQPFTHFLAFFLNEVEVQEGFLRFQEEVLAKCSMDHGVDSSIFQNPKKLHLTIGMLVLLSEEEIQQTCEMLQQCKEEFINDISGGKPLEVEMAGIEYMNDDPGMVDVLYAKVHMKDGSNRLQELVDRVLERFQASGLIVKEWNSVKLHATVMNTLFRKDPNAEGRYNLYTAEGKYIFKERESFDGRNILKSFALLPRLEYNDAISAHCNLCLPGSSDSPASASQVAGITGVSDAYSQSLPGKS
# The list shows a part of the results.
# Experiments:
# Assay in all cases: log2 fold change, soluble protein after heating vs DMSO (PISA); higher = thermal stabilisation; K562 lysate, 10 uM; active = over 0.2 and 3.5 SD of the protein, either way, in both replicates (recomputed)
# lapatinib = compound: CS(=O)(=O)CCNCc1ccc(-c2ccc3ncnc(Nc4ccc(OCc5cccc(F)c5)c(Cl)c4)c3c2)o1 [lapatinib]
# Method in brief: (§1)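 Log-two fold change in thermal stability relative to solvent controls is reported from duplicates. For each sample, crude K562 extract from dounce-homogenised pellets in PBS pH 7.4 with 1 mM MgCl2, at 1 mg/mL protein, was treated with 10 μM compound for 30 min. Aliquots heated for 3 min across 48°C-58°C were pooled, brought to 0.5% NP-40 at 4°C and cleared at 21,000xg for 90 min. The supernatant was quantified by TMTpro 16plex LC-MS/MS with channel sums equalised.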
# pictilisib = compound: CS(=O)(=O)N1CCN(Cc2cc3nc(-c4cccc5[nH]ncc45)nc(N4CCOCC4)c3s2)CC1 [pictilisib]
# Method in brief: as §1
# crizotinib = compound: C[C@@H](Oc1cc(-c2cnn(C3CCNCC3)c2)cnc1N)c1c(Cl)ccc(F)c1Cl [crizotinib]
# Method in brief: as §1
# [1] = compound: C[C@H](C1=CC=C(C=C1)C(=O)NC2=C3C=CNC3=NC=C2)N
# Method in brief: as §1
# duvelisib = compound: C[C@H](Nc1ncnc2nc[nH]c12)c1cc2cccc(Cl)c2c(=O)n1-c1ccccc1 [duvelisib]
# Method in brief: as §1
# gandotinib = compound: Cc1cc(Nc2cc(CN3CCOCC3)c3nc(C)c(Cc4ccc(Cl)cc4F)n3n2)n[nH]1 [gandotinib]
# Method in brief: as §1
# tozasertib = compound: Cc1cc(Nc2cc(N3CCN(C)CC3)nc(Sc3ccc(NC(=O)C4CC4)cc3)n2)n[nH]1 [tozasertib]
# Method in brief: as §1
# doramapimod = compound: Cc1ccc(-n2nc(C(C)(C)C)cc2NC(=O)Nc2ccc(OCCN3CCOCC3)c3ccccc23)cc1 [doramapimod]
# Method in brief: as §1
# bafetinib = compound: Cc1ccc(NC(=O)c2ccc(CN3CC[C@H](N(C)C)C3)c(C(F)(F)F)c2)cc1Nc1nccc(-c2cncnc2)n1 [bafetinib]
# Method in brief: as §1
# [2] = compound: Cc1cccc(CC(=O)N2CCc3c2ccc(-c2cn(C)c4ncnc(N)c24)c3F)n1
# Method in brief: as §1
# nilotinib = compound: Cc1cn(-c2cc(NC(=O)c3ccc(C)c(Nc4nccc(-c5cccnc5)n4)c3)cc(C(F)(F)F)c2)cn1 [nilotinib]
# Method in brief: as §1
# [3] = compound: Cc1nc(Nc2n[nH]c3c2CN(C(=O)N[C@H](CN(C)C)c2ccccc2)C3(C)C)c2sccc2n1
# Method in brief: as §1
# dasatinib = compound: Cc1nc(Nc2ncc(C(=O)Nc3c(C)cccc3Cl)s2)cc(N2CCN(CCO)CC2)n1 [dasatinib]
# Method in brief: as §1
# [4] = compound: Cc1ncc(-c2ccnc(Nc3ccc(S(C)(=O)=O)cc3)n2)n1C(C)C
# Method in brief: as §1
# [5] = compound: Cn1cc(-c2ccc3c(c2)CCN3C(=O)Cc2cccc(C(F)(F)F)c2)c2c(N)ncnc21
# Method in brief: as §1
# quisinostat = compound: Cn1cc(CNCC2CCN(c3ncc(C(=O)NO)cn3)CC2)c2ccccc21 [quisinostat]
# Method in brief: as §1
# tipifarnib = compound: Cn1cncc1[C@@](N)(c1ccc(Cl)cc1)c1ccc2c(c1)c(-c1cccc(Cl)c1)cc(=O)n2C [tipifarnib]
# Method in brief: as §1
# [6] = compound: NC(=O)Nc1cc(-c2cccc(F)c2)sc1C(=O)N[C@H]1CCCNC1
# Method in brief: as §1
# [7] = compound: NC(=O)c1cnc(N[C@@H]2CCCC[C@@H]2N)nc1Nc1cccc(-n2nccn2)c1
# Method in brief: as §1
# [8] = compound: NC1(c2ccc(-c3nc4ccn5c(=O)[nH]nc5c4cc3-c3ccccc3)cc2)CCC1
# Method in brief: as §1
Target,log2 fold change (lapatinib),log2 fold change (pictilisib),log2 fold change (crizotinib),log2 fold change [1],log2 fold change (duvelisib),log2 fold change (gandotinib),log2 fold change (tozasertib),log2 fold change (doramapimod),log2 fold change (bafetinib),log2 fold change [2],log2 fold change (nilotinib),log2 fold change [3],log2 fold change (dasatinib),log2 fold change [4],log2 fold change [5],log2 fold change (quisinostat),log2 fold change (tipifarnib),log2 fold change [6],log2 fold change [7],log2 fold change [8]
ASNS (UniProt P08243),inactive: -0.019,inactive: -0.012,inactive: -0.042,inactive: 0.013,inactive: -0.001,inactive: -0.051,inactive: 0.011,inactive: -0.01,inactive: -0.033,inactive: 0.002,inactive: -0.004,inactive: -0.008,inactive: -0.039,inactive: -0.018,inactive: 0.025,inactive: 0.027,inactive: 0.017,inactive: 0.027,inactive: -0.01,inactive: -0.028
ATP1A3 isoform 3 (UniProt P13637),inactive: -0.022,inactive: 0.002,inactive: -0.014,inactive: -0.007,inactive: 0.059,inactive: 0.004,inactive: -0.01,inactive: 0.017,inactive: 0.013,inactive: 0.062,inactive: 0.069,inactive: -0.041,inactive: -0.013,inactive: 0.017,inactive: 0.011,inactive: -0.046,inactive: -0.006,inactive: -0.022,inactive: 0.011,inactive: -0.018
ASRGL1 (UniProt Q7L266),inactive: -0.002,inactive: 0.023,inactive: -0.002,inactive: -0.024,inactive: -0.014,inactive: 0.062,inactive: 0.026,inactive: 0.009,inactive: -0.08,inactive: 0.011,inactive: 0.044,inactive: -0.012,inactive: 0.03,inactive: 0,inactive: 0.021,inactive: -0.002,inactive: 0.072,inactive: -0.023,inactive: -0.03,inactive: 0.004
ATP1B3 (UniProt P54709),inactive: -0.004,inactive: -0.018,inactive: 0.027,inactive: -0.028,inactive: 0.016,inactive: 0.031,inactive: -0.008,inactive: -0.009,inactive: 0.045,inactive: -0.032,inactive: 0.006,inactive: 0.005,inactive: 0.02,inactive: 0.019,inactive: -0.035,inactive: -0.005,inactive: 0.007,inactive: -0.004,inactive: -0.023,inactive: 0.017
ATP11B (UniProt Q9Y2G3),inactive: -0.023,inactive: -0.018,inactive: 0.029,inactive: -0.209,inactive: 0.03,inactive: 0.061,inactive: 0.027,inactive: -0.019,inactive: -0.033,inactive: 0.061,inactive: 0.043,inactive: 0.001,inactive: 0.008,inactive: 0.011,inactive: -0.007,inactive: 0.021,inactive: 0.012,inactive: 0.005,inactive: -0.01,inactive: 0.009
ATP5PD (UniProt O75947),inactive: -0.032,inactive: -0.058,inactive: 0.042,inactive: 0.009,inactive: -0.007,inactive: -0.005,inactive: 0.036,inactive: -0.027,inactive: 0.006,inactive: 0.003,inactive: 0.02,inactive: 0.013,inactive: 0.024,inactive: 0.016,inactive: -0.018,inactive: -0.017,inactive: 0.007,inactive: -0.037,inactive: 0,inactive: 0.023
ASL (UniProt P04424),inactive: -0.023,inactive: 0,inactive: 0.037,inactive: -0.003,inactive: 0.029,inactive: -0.016,inactive: -0.009,inactive: -0.023,inactive: -0.05,inactive: -0.009,inactive: 0.017,inactive: -0.014,inactive: -0.017,inactive: 0.01,inactive: -0.012,inactive: 0.017,inactive: 0.016,inactive: 0,inactive: 0.021,inactive: -0.003
ASXL1 (UniProt Q8IXJ9),inactive: 0.021,inactive: 0.167,inactive: -0.004,inactive: -0.066,inactive: -0.026,inactive: 0.49,inactive: 0.011,inactive: 0.01,inactive: 0.06,inactive: -0.035,inactive: -0.055,inactive: -0.051,inactive: 0.084,inactive: 0.021,inactive: 0.003,inactive: -0.013,inactive: -0.073,inactive: 0.008,inactive: 0.031,inactive: -0.02
ATP5IF1 (UniProt Q9UII2),inactive: -0.043,inactive: 0,inactive: -0.002,inactive: -0.044,inactive: -0.005,inactive: 0.211,inactive: 0,inactive: -0.051,inactive: 0.02,inactive: 0.113,inactive: -0.008,inactive: -0.04,inactive: -0.013,inactive: 0.026,inactive: -0.028,inactive: 0.009,inactive: -0.015,inactive: -0.071,inactive: 0.002,inactive: 0.002
ATG2B (UniProt Q96BY7),inactive: -0.009,inactive: -0.068,inactive: -0.06,inactive: -0.02,inactive: 0.014,inactive: -0.097,inactive: 0.003,inactive: 0.032,inactive: -0.049,inactive: 0.048,inactive: 0.01,inactive: 0.006,inactive: -0.066,inactive: -0.007,inactive: -0.027,inactive: -0.002,inactive: -0.09,inactive: 0.021,inactive: 0.015,inactive: -0.016
ATP6V1G1 (UniProt O75348),inactive: 0.025,inactive: 0.008,inactive: 0.017,inactive: -0.007,inactive: 0.052,inactive: 0.013,inactive: -0.026,inactive: 0.032,inactive: -0.001,inactive: 0.016,inactive: 0.051,inactive: -0.058,inactive: 0.008,inactive: -0.037,inactive: -0.02,inactive: 0.012,inactive: -0.02,inactive: -0.006,inactive: 0.038,inactive: -0.004
ATR (UniProt Q13535),inactive: -0.036,active: 0.408,inactive: -0.1,inactive: -0.158,inactive: 0.032,inactive: 0.117,inactive: 0.044,inactive: 0.068,inactive: -0.033,inactive: 0.161,inactive: -0.075,inactive: 0.002,inactive: 0.001,inactive: 0.013,inactive: 0.001,inactive: -0.219,inactive: -0.032,inactive: 0.047,inactive: 0.014,inactive: -0.085
ATG7 (UniProt O95352),inactive: 0.006,inactive: -0.002,inactive: -0.015,inactive: -0.037,inactive: 0,inactive: -0.035,inactive: -0.015,inactive: 0.02,inactive: -0.024,inactive: 0.006,inactive: 0.02,inactive: -0.03,inactive: -0.026,inactive: -0.032,inactive: 0.037,inactive: -0.039,inactive: 0.03,inactive: 0.058,inactive: 0.01,inactive: -0.02
ATP6V1E2 (UniProt Q96A05),inactive: -0.029,inactive: -0.018,inactive: 0.045,inactive: -0.093,inactive: 0.036,inactive: 0.086,inactive: -0.065,inactive: -0.012,inactive: -0.009,inactive: 0.066,inactive: 0.011,inactive: 0.003,inactive: -0.024,inactive: 0.004,inactive: -0.005,inactive: 0.013,inactive: 0.009,inactive: -0.031,inactive: 0.006,inactive: -0.037
ASPH (UniProt Q12797),inactive: -0.035,inactive: -0.012,inactive: -0.025,inactive: 0.048,inactive: -0.022,inactive: -0.04,inactive: 0.037,inactive: 0.008,inactive: 0.029,inactive: 0.005,inactive: -0.033,inactive: -0.025,inactive: 0.089,inactive: 0.011,inactive: -0.019,inactive: -0.02,inactive: 0.004,inactive: -0.005,inactive: -0.009,inactive: -0.013
ASCC1 isoform 2 (UniProt Q8N9N2),inactive: -0.003,inactive: -0.023,inactive: -0.054,inactive: -0.056,inactive: -0.013,inactive: -0.008,inactive: 0.014,inactive: 0.123,inactive: -0.068,inactive: 0.039,inactive: 0.003,inactive: 0.006,inactive: 0.015,inactive: -0.024,inactive: 0.008,inactive: -0.067,inactive: 0.031,inactive: 0.058,inactive: 0.013,inactive: -0.038

# Whole records from above. Order of values: log2 fold change (lapatinib) | log2 fold change (pictilisib) | log2 fold change (crizotinib) | log2 fold change [1] | log2 fold change (duvelisib) | log2 fold change (gandotinib) | log2 fold change (tozasertib) | log2 fold change (doramapimod) | log2 fold change (bafetinib) | log2 fold change [2] | log2 fold change (nilotinib) | log2 fold change [3] | log2 fold change (dasatinib) | log2 fold change [4] | log2 fold change [5] | log2 fold change (quisinostat) | log2 fold change (tipifarnib) | log2 fold change [6] | log2 fold change [7] | log2 fold change [8]
# ATP1A3 isoform 3 (UniProt P13637) in the list: inactive: -0.022 | inactive: 0.002 | inactive: -0.014 | inactive: -0.007 | inactive: 0.059 | inactive: 0.004 | inactive: -0.01 | inactive: 0.017 | inactive: 0.013 | inactive: 0.062 | inactive: 0.069 | inactive: -0.041 | inactive: -0.013 | inactive: 0.017 | inactive: 0.011 | inactive: -0.046 | inactive: -0.006 | inactive: -0.022 | inactive: 0.011 | inactive: -0.018
# ATP5IF1 (UniProt Q9UII2) in the list: inactive: -0.043 | inactive: 0 | inactive: -0.002 | inactive: -0.044 | inactive: -0.005 | inactive: 0.211 | inactive: 0 | inactive: -0.051 | inactive: 0.02 | inactive: 0.113 | inactive: -0.008 | inactive: -0.04 | inactive: -0.013 | inactive: 0.026 | inactive: -0.028 | inactive: 0.009 | inactive: -0.015 | inactive: -0.071 | inactive: 0.002 | inactive: 0.002
